{"source": "patent US20060242739A1", "about": "“Plant nucleotide-sugar pyrophosphatase/phosphodiesterase (nppase), method of obtaining same and use of same in the production of assay devices and in the production of transgenic plants” (Universidad Publica De Navarra, priority 2002, published 2006)", "substrate": "Nc1ncnc2c1ncn2[C@@H]1O[C@H](COP(=O)(O)OS(=O)(=O)O)[C@@H](O)[C@H]1O", "assay": "purified protein, by the assay type", "conditions": "other: substrate of NPPase from barley leaves; pH 7.0"}
{"protein": "NPPase from barley leaves (Hordeum vulgare) (protein) SDGSVVWAKPYTFRAPPTPGQNSLQRIIVFGDMGKAERDGSNEFANYQPGSLNTTDRLIEDLDNYDIVFHIGDMPYANGYLSQWDQFTAQVAPISAKKPYMVASGNHERDWPNTGGFFDVKDSGGECGVPAETMYYYPAENRANFWYKVDYGMFRFCVGDSEHDWREGTPQYKFIEECLSTVDRKHQPWLIFTAHRVLGYSSNSWYADQGSFEEPEGRESLQKLWQRYRVDIAYFGHVHNYERTCPLYQSQCVNADKTHYSGTMNGTIFVVAGGGGSHLSSYTTAIPKWSIFRDHDYGFTKLTAFNHSSLLFEYMKSSDGKVYDSFTIHRDYRDVLSCVHDSCFPTTLAS", "values": [{"measurement": "Km", "result": 500, "unit": "µM"}]}
